No constants are given. Whether binding was seen depends on the method and setting. Binding seen in cells or lysates may run through a third protein. Here binding means that the protein was enriched with, or labelled near, the bait; the list need not be complete.
Target: mCherry-ATG8E (Arabidopsis thaliana) (UniProt Q8S926)
Assay: affinity purification with mass spectrometry; RFP-Trap of extracts of Arabidopsis seedlings expressing mCherry-ATG8E, ER stress by tunicamycin, peptide competition with AIM wt or AIM mut

The chains behind the UniProt entries cited, without tags or fusion partners. Residues count along the entry.
UniProt Q8S926, residues 1-118: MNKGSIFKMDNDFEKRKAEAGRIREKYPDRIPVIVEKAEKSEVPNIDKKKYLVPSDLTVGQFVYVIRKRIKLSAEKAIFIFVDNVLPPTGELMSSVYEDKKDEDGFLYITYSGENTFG
UniProt Q9FG23: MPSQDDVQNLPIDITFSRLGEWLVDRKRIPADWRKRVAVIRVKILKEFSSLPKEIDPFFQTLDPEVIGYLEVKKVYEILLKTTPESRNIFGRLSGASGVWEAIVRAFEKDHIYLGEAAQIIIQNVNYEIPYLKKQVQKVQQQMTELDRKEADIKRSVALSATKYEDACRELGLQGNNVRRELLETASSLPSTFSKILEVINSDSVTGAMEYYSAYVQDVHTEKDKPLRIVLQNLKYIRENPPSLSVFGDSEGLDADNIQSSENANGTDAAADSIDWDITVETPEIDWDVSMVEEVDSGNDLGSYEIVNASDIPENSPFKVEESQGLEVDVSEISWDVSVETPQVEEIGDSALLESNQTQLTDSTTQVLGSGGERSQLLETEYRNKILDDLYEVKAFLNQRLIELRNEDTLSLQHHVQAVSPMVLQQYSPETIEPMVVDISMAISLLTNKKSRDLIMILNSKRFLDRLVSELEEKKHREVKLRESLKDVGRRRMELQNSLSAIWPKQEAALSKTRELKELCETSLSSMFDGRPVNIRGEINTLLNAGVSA

In the case of “AtC53 (endogenous) (from UniProt Q9FG23 1-549)”, the binding was “binds”.

Reference: publication PMC7515635
